Amino acid sequences for entries named in this document (tags omitted).
UniProt Q8LK56: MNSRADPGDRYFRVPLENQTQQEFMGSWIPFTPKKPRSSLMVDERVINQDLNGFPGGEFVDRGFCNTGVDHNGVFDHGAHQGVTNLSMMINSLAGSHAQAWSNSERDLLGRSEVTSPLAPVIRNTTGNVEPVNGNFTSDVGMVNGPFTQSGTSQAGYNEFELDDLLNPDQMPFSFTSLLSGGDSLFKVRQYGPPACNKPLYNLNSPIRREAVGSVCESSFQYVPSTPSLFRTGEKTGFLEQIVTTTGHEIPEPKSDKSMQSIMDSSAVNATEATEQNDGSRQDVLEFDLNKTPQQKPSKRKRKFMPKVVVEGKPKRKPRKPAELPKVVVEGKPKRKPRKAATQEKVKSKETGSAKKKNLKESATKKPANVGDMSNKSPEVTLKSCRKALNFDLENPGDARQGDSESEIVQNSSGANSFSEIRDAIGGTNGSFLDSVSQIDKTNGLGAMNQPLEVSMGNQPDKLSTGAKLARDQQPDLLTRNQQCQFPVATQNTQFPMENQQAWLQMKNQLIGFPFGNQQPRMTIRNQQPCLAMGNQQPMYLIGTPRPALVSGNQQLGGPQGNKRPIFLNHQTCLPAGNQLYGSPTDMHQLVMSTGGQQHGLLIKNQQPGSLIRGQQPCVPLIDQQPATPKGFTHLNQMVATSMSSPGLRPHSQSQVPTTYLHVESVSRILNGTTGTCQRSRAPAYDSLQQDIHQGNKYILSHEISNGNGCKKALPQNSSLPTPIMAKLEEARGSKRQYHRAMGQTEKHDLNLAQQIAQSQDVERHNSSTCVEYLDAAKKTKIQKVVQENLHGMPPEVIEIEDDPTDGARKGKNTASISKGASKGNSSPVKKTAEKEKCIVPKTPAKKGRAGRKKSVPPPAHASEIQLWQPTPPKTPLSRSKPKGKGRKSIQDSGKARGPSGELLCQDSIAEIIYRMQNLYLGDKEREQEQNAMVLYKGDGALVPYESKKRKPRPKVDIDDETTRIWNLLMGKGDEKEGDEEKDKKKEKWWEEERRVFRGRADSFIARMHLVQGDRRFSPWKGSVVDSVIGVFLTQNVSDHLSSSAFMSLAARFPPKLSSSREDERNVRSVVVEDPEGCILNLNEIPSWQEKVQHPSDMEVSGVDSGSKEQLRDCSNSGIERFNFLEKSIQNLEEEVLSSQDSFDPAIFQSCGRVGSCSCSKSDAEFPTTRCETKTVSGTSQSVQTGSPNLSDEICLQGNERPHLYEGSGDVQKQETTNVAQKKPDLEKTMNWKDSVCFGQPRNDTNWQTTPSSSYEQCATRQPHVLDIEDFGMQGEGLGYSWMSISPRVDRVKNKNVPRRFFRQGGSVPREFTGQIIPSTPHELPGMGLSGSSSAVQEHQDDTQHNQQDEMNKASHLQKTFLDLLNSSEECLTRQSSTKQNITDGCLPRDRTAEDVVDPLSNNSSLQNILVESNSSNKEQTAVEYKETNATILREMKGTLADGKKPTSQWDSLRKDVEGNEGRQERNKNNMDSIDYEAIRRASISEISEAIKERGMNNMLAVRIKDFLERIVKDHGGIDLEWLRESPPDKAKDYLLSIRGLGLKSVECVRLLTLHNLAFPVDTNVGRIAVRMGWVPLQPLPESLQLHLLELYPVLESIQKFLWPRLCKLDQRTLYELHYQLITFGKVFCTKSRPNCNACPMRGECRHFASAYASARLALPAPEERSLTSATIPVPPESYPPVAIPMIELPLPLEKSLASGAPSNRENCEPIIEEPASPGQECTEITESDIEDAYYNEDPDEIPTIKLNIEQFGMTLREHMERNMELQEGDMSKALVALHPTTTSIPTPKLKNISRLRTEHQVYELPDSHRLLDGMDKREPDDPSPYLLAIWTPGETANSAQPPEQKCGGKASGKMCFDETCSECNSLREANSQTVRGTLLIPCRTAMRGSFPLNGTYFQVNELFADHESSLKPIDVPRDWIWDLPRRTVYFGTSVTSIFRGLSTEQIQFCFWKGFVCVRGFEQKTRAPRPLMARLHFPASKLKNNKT

According to article PMC4872223:

T1: MET18-3Flag (Arabidopsis) (UniProt Q0WVF8)
T1 sequence: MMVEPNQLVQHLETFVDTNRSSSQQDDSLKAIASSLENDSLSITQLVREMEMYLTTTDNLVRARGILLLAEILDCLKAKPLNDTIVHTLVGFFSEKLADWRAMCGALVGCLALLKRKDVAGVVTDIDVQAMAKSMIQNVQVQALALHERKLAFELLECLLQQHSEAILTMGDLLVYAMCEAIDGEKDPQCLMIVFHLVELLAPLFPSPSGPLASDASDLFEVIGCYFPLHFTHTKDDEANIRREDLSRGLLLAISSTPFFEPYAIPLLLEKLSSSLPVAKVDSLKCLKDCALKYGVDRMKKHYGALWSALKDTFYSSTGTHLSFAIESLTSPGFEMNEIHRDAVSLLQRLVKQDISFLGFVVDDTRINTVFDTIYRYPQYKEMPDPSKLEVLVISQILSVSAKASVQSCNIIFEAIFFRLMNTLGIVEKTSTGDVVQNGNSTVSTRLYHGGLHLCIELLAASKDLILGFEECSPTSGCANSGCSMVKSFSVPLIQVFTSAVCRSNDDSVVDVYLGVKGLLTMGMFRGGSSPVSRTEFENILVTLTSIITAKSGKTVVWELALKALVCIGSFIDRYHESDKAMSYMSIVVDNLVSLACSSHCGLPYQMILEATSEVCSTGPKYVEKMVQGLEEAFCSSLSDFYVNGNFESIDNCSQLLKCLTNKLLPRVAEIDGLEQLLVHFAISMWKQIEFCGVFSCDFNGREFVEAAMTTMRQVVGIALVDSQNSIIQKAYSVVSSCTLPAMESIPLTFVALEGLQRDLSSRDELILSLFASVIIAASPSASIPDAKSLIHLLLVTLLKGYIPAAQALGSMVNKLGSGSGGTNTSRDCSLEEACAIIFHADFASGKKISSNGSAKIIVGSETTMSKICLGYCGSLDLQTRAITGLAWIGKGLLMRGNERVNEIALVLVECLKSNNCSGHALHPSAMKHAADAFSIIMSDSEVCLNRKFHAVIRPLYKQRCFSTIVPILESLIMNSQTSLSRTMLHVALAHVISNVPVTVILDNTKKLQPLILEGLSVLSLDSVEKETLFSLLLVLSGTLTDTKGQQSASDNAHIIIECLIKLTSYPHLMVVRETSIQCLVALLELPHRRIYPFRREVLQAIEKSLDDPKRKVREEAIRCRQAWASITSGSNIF

B1: ACO1 (protein, UniProt Q42560 1-898)
chain: MASENPFRSILKALEKPDGGEFGNYYSLPALNDPRIDKLPYSIRILLESAIRNCDEFQVKSKDVEKILDWENTSPKQVEIPFKPARVLLQDFTGVPAVVDLACMRDAMNNLGGDSNKINPLVPVDLVIDHSVQVDVARSENAVQANMELEFQRNKERFAFLKWGSNAFHNMLVVPPGSGIVHQVNLEYLARVVFNTNGLLYPDSVVGTDSHTTMIDGLGVAGWGVGGIEAEATMLGQPMSMVLPGVVGFKLTGKLRDGMTATDLVLTVTQMLRKHGVVGKFVEFHGEGMRELSLADRATIANMSPEYGATMGFFPVDHVTLQYLRLTGRSDDTVSMIEAYLRANKMFVDYSEPESKTVYSSCLELNLEDVEPCVSGPKRPHDRVPLKEMKADWHSCLDNRVGFKGFAVPKEAQSKAVEFNFNGTTAQLRHGDVVIAAITSCTNTSNPSVMLGAALVAKKACDLGLEVKPWIKTSLAPGSGVVTKYLAKSGLQKYLNQLGFSIVGYGCTTCIGNSGDIHEAVASAIVDNDLVASAVLSGNRNFEGRVHPLTRANYLASPPLVVAYALAGTVDIDFETQPIGTGKDGKQIFFRDIWPSNKEVAEVVQSSVLPDMFKATYEAITKGNSMWNQLSVASGTLYEWDPKSTYIHEPPYFKGMTMSPPGPHGVKDAYCLLNFGDSITTDHISPAGSIHKDSPAAKYLMERGVDRRDFNSYGSRRGNDEIMARGTFANIRIVNKHLKGEVGPKTVHIPTGEKLSVFDAAMKYRNEGRDTIILAGAEYGSGSSRDWAAKGPMLLGVKAVISKSFERIHRSNLVGMGIIPLCFKAGEDAETLGLTGQELYTIELPNNVSEIKPGQDVTVVTNNGKSFTCTLRFDTEVELAYFDHGGILQYVIRNLIKQ
B2: DNA polymerase subunit AT5G63960 (protein, UniProt Q9LVN7 1-1095)
chain: MNRSGISKKRPPPSNTPPPAGKHRATGDSTPSPAIGTLDDEFMMEEDVFLDETLLYGDEDEESLILRDIEERESRSSAWARPPLSPAYLSNSQSIIFQQLEIDSIIAESHKELLPGSSGQAPIIRMFGVTREGNSVCCFVHGFEPYFYIACPPGMGPDDISNFHQSLEGRMRESNKNAKVPKFVKRIEMVQKRSIMYYQQQKSQTFLKITVALPTMVASCRGILDRGLQIDGLGMKSFQTYESNILFVLRFMVDCDIVGGNWIEVPTGKYKKNARTLSYCQLEFHCLYSDLISHAAEGEYSKMAPFRVLSFDIECAGRKGHFPEAKHDPVIQIANLVTLQGEDHPFVRNVMTLKSCAPIVGVDVMSFETEREVLLAWRDLIRDVDPDIIIGYNICKFDLPYLIERAATLGIEEFPLLGRVKNSRVRVRDSTFSSRQQGIRESKETTIEGRFQFDLIQAIHRDHKLSSYSLNSVSAHFLSEQKEDVHHSIITDLQNGNAETRRRLAVYCLKDAYLPQRLLDKLMFIYNYVEMARVTGVPISFLLARGQSIKVLSQLLRKGKQKNLVLPNAKQSGSEQGTYEGATVLEARTGFYEKPIATLDFASLYPSIMMAYNLCYCTLVTPEDVRKLNLPPEHVTKTPSGETFVKQTLQKGILPEILEELLTARKRAKADLKEAKDPLEKAVLDGRQLALKISANSVYGFTGATVGQLPCLEISSSVTSYGRQMIEQTKKLVEDKFTTLGGYQYNAEVIYGDTDSVMVQFGVSDVEAAMTLGREAAEHISGTFIKPIKLEFEKVYFPYLLINKKRYAGLLWTNPQQFDKMDTKGIETVRRDNCLLVKNLVTESLNKILIDRDVPGAAENVKKTISDLLMNRIDLSLLVITKGLTKTGDDYEVKSAHGELAERMRKRDAATAPNVGDRVPYVIIKAAKGAKAYERSEDPIYVLQNNIPIDPNYYLENQISKPLLRIFEPVLKNASKELLHGSHTRSISITTPSNSGIMKFAKKQLSCVGCKVPISNGTLCASCKGREAELYCKNVSQVAELEEVFGRLWTQCQECQGSLHQDVLCTSRDCPIFYRRMKAQKDMAVARQQLDRWSF
B3: CIA2/AE7 (protein, UniProt Q9C9G6 1-157)
chain: MVSGLINENPIIYPKKERRLRTDTSITDELTPEPIDQLEIFDHIRDIKDPEHPNTLEDLRVVTEDSVEVDDENSYVRVTFTPTVEHCSMATVIGLCVRVKLLRSLPSRYKIDIRVAPGSHATEDALNKQLNDKERVAAALENPNLVEMVDECLPSEE
B4: CIA1 (protein, UniProt O80990 1-352)
chain: MDLMEKNLELVEIQKLEGHTDRVWSVAWNPVSSHADGVSPILASCSGDNTVRIWEQSSLSRSWTCKTVLEETHTRTVRSCAWSPSGQLLATASFDGTTGIWKNYGSEFECISTLEGHENEVKSVSWNASGSCLATCSRDKSVWIWEVLEGNEYDCAAVLTGHTQDVKMVQWHPTMDVLFSCSYDNTIKVWWSEDDDGEYQCVQTLGESNNGHSSTVWSISFNAAGDKMVTCSDDLTLKIWGTDIAKMQSGEEYAPWIHLCTLSGYHDRTIYSAHWSRDDIIASGAGDNAIRLFVDSKHDSVDGPSYNLLLKKNKAHENDVNSVQWSPGEGNRLLASASDDGMVKIWQLATKP
B5: REPRESSOR OF …1 (ROS1), endogenous (protein, UniProt Q9SJQ6 1-1393)
chain: MEKQRREESSFQQPPWIPQTPMKPFSPICPYTVEDQYHSSQLEERRFVGNKDMSGLDHLSFGDLLALANTASLIFSGQTPIPTRNTEVMQKGTEEVESLSSVSNNVAEQILKTPEKPKRKKHRPKVRREAKPKREPKPRAPRKSVVTDGQESKTPKRKYVRKKVEVSKDQDATPVESSAAVETSTRPKRLCRRVLDFEAENGENQTNGDIREAGEMESALQEKQLDSGNQELKDCLLSAPSTPKRKRSQGKRKGVQPKKNGSNLEEVDISMAQAAKRRQGPTCCDMNLSGIQYDEQCDYQKMHWLYSPNLQQGGMRYDAICSKVFSGQQHNYVSAFHATCYSSTSQLSANRVLTVEERREGIFQGRQESELNVLSDKIDTPIKKKTTGHARFRNLSSMNKLVEVPEHLTSGYCSKPQQNNKILVDTRVTVSKKKPTKSEKSQTKQKNLLPNLCRFPPSFTGLSPDELWKRRNSIETISELLRLLDINREHSETALVPYTMNSQIVLFGGGAGAIVPVTPVKKPRPRPKVDLDDETDRVWKLLLENINSEGVDGSDEQKAKWWEEERNVFRGRADSFIARMHLVQGDRRFTPWKGSVVDSVVGVFLTQNVSDHLSSSAFMSLASQFPVPFVPSSNFDAGTSSMPSIQITYLDSEETMSSPPDHNHSSVTLKNTQPDEEKDYVPSNETSRSSSEIAISAHESVDKTTDSKEYVDSDRKGSSVEVDKTDEKCRVLNLFPSEDSALTCQHSMVSDAPQNTERAGSSSEIDLEGEYRTSFMKLLQGVQVSLEDSNQVSPNMSPGDCSSEIKGFQSMKEPTKSSVDSSEPGCCSQQDGDVLSCQKPTLKEKGKKVLKEEKKAFDWDCLRREAQARAGIREKTRSTMDTVDWKAIRAADVKEVAETIKSRGMNHKLAERIQGFLDRLVNDHGSIDLEWLRDVPPDKAKEYLLSFNGLGLKSVECVRLLTLHHLAFPVDTNVGRIAVRLGWVPLQPLPESLQLHLLEMYPMLESIQKYLWPRLCKLDQKTLYELHYQMITFGKVFCTKSKPNCNACPMKGECRHFASAFASARLALPSTEKGMGTPDKNPLPLHLPEPFQREQGSEVVQHSEPAKKVTCCEPIIEEPASPEPETAEVSIADIEEAFFEDPEEIPTIRLNMDAFTSNLKKIMEHNKELQDGNMSSALVALTAETASLPMPKLKNISQLRTEHRVYELPDEHPLLAQLEKREPDDPCSYLLAIWTPGETADSIQPSVSTCIFQANGMLCDEETCFSCNSIKETRSQIVRGTILIPCRTAMRGSFPLNGTYFQVNEVFADHASSLNPINVPRELIWELPRRTVYFGTSVPTIFKGLSTEKIQACFWKGYVCVRGFDRKTRGPKPLIARLHFPASKLKGQQANLA
B6: NAR1 (protein, UniProt Q94CL6 1-474)
chain: MSEKFSPTLRLGDLNDFIAPSQACVISLKDSKPIVKKSDRPQVVIAPKQQLEPVKISLKDCLACSGCITSAETVMLEKQSLDEFLSALSKGKDVVVSVSPQSRASLAVHYDISPLQVFKKLTTFLKSLGVKAVFDTSCSRDLVLIESCNEFVSRYKQANSDDGENSQSPLPVLSSACPGWICYAEKQLGSYVLPYVSSVKSPQQAIGAAIKHHLCQALGLRLHEVYHVTVMPCYDKKLEAARDDFVFDDGTQDNGDLKLTEVDSVLTTGEIMDLIKLKGVDFKDLEESPLDRVLTNVTEEGDLYGVAGSSGGYAETIFRHAAKALFGQTIEGPLEFKTLRNSDFREVTLQLEGKTVLKFALCYGFQNLQNIVRRVKTRKCDYQYVEIMACPAGCLNGGGQIKPKTGQSQKELIHSLEATYMNDTTLNTDPYQNPTAKRLFEEWLKEPGSNEAKKYLHTQYHPVVKSVTSQLNNW

The molecules below were run against T1, MET18-3Flag (Arabidopsis) (assay: affinity purification with mass spectrometry; MET18-3Flag from flower tissue lysate of transgenic plants held on anti-Flag M2 magnetic beads, 3 h at 4 °C; lysis buffer 50 mM Tris pH 8.0, 230 mM NaCl, 5 mM MgCl2, 10% glycerol, 0.2% NP-40; eluted with Flag peptides; SDS-PAGE, in-gel trypsin digestion).

| binding | Molecule |
| --- | --- |
| binds | DEMETER (DME) (from UniProt Q8LK56 1-1987) |
| binds | AtDRE2 |
| binds | ICU2 |
| binds | B1 |
| binds | B2 |
| binds | B3 |
| binds | B4 |
| binds | B5 |
| binds | B6 |

No constants are given. Whether binding was seen depends on the method and setting. Binding seen in cells or lysates may run through a third protein. Here binding means that the protein was enriched with, or labelled near, the bait; the list need not be complete. Tags and fused reporters may be left off the sequences shown.
